About 7,500 (2.1%) of roughly 360,000 compounds were called active. Inconclusive means that the source gave no clear call. Such entries were picked first, then a sample of the others. Calls follow the shape of the dose curve; as a rule, active = well fitted inhibition curve with a large enough effect; inconclusive = small, poorly fitted or top-dose-only effect, or effect the other way; inactive = flat fitted curve, though single readings scatter. Potencies of inconclusive entries are doubtful fits and often do not repeat.
test: Nrf2 qHTS screen for inhibitors; details: A549 ARE-Fluc reporter, luciferase luminescence, 18-24 h; series mostly up to 46 µM; also: nearly all actives have a fitted effect of over 60% in size
Procedure, shortened: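 Quantitative HTS in A549 cells stably bearing an antioxidant response element-firefly luciferase construct. Inhibition of Nrf2-driven transcription was scored by luminescence after 18-24 h of compound exposure at 37 °C.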
Potency is read from the fitted curve at half-maximal effect.

Structure (SMILES) | Potency
C(=N\Nc1nncc2ccccc12)/c1ccccn1 | inconclusive: 13 µM [activator, partial curve, poor fit]
Cc1nnc(SCC(=O)c2ccc(C(C)C)cc2)s1 | inconclusive: 16.4 µM [activator, partial curve]
COc1ccc(NC(=O)CN(C)Cc2c(F)cccc2Cl)cc1S(=O)(=O)N1CCCCC1 | inconclusive: 7.31 µM [falling, partial curve, poor fit]
Cn1c(=O)c2c(ncn2CC(=O)N2CCOCC2)n(C)c1=O | inconclusive: 2.91 µM [activator, partial curve, poor fit]
CCOC(=O)C1=CC[C@]2(C)c3c(c4ccccc4n3C)C(=O)C1N2C | inactive
COc1ccc(-c2noc(CCC(=O)NCCCN3CCC(Cc4ccccc4)CC3)n2)cc1 | inconclusive: 4.61 µM [falling, full curve, poor fit]
Cc1cc(=O)nc2c3ccccc3n(CC(=O)NC3CCCCC3)n12 | inconclusive: 25.9 µM [falling, partial curve, poor fit]
CCOC(=O)c1nc(Nc2cc(C)cc(C)c2)c2ccccc2n1 | inconclusive: 4.61 µM [falling, partial curve, poor fit]
CCS(=O)(=O)N1CCN(c2ccc(Cl)cc2[N+](=O)[O-])CC1 | inconclusive: 29.1 µM [falling, single point]
CC(=O)c1ccc(NC(=O)C2(S(=O)(=O)c3ccccc3)CC2)cc1 | inconclusive: 29.1 µM [activator, partial curve, poor fit]
COc1ccc(OC)c(C2=NOC(C(=O)NCc3cccs3)C2)c1 (stereo not given) | inconclusive: 5.8 µM [falling, full curve]
COc1ccccc1NC(=O)c1oc2ccccc2c1NC(=O)Cc1cccs1 | inconclusive: 11.6 µM [falling, partial curve, poor fit]
COc1cccc(NC(=O)Cn2c(=O)n(-c3ccccc3)c(=O)c3ccc(C(=O)NCc4ccc5c(c4)OCO5)cc32)c1 | inactive
Nc1nonc1-n1nnc(C(=O)N/N=C/c2cc(Br)ccc2O)c1CNc1ccccc1 | inconclusive: 32.6 µM [falling, single point]
CNC(=O)CC1C(=O)N(c2ccc(Cl)cc2)C(=S)N1CCc1ccc(OC)c(OC)c1 (stereo not given) | inconclusive: 29.1 µM [falling, partial curve, poor fit]
Cc1cc2nccc(-c3ccncc3)n2n1 | inconclusive: 23.1 µM [falling, partial curve, poor fit]
CCNC(=S)N(Cc1ccco1)Cc1cc2cc(OCC)ccc2[nH]c1=O | inconclusive: 4.11 µM [falling, full curve, poor fit]
CCOC(=O)c1cc(=O)n2[nH]c(-c3ccc(C)cc3)cc2n1 | inconclusive: 7.31 µM [activator, partial curve, poor fit]
O=C(NCC1CCCO1)c1ccc2c(=O)n(Cc3cccc(Br)c3)c(=S)[nH]c2c1 (stereo not given) | inconclusive: 29.1 µM [falling, single point]
COc1cc2c(cc1OC)C(c1ccc(Cl)cc1)N(c1cccc(C#N)c1)C(=O)C2 (stereo not given) | inconclusive: 32.6 µM [falling, partial curve, poor fit]

Structure (SMILES) | Potency
CCc1nc(Nc2ccc(OC)cc2OC)c2oc3ccccc3c2n1 | inconclusive: 23.1 µM [falling, single point]
CCOc1ncccc1C(=O)Nc1nc(C(C)(C)C)cs1 | inconclusive: 23.1 µM [activator, partial curve, poor fit]
COc1ccccc1NC(=O)Nc1ccc2c(c1)CCC2 | inconclusive: 25.9 µM [activator, single point]
COc1ccccc1-c1nnc(C2CCN(S(=O)(=O)c3ccc(CC(C)C)cc3)CC2)o1 | inconclusive: 29.1 µM [falling, single point]
N#CC1=C(N)C(C#N)(C#N)C2(C(=O)Nc3ccccc32)C2CCCC=C12 (stereo not given) | inactive
CCOC(=O)N1CCN(CCC(=O)c2ccc(Cl)cc2)CC1 | inactive
Cc1cc(OC(C)C(=O)NNC(=O)Nc2ccc(F)cc2F)cc(C)c1Cl (stereo not given) | inactive
N=C(N)c1ccc(O)cc1 | inconclusive: 0.0046 µM [falling, full curve, poor fit]
COc1ccc(/C=N/OCC(=O)Nc2ccc3c(c2)OCO3)c(OC)c1 | inconclusive: 29.1 µM [falling, single point]
COc1cccc(-c2nc(SCc3cccc(Br)c3)n3[nH]c(=O)cc3n2)c1 | inconclusive: 20.6 µM [activator, single point]
Cc1cc(Cl)ccc1OCCCC(=O)N1CCOCC1 | inconclusive: 13 µM [activator, partial curve]
CS(=O)(=O)N1CCCC(C(=O)NCc2ccc(F)cc2Cl)C1 (stereo not given) | inconclusive: 2.59 µM [activator, partial curve, poor fit]
COc1ccc2oc(C(=O)NCC(c3ccco3)N(C)C)c(C)c2c1 (stereo not given) | inconclusive: 29.1 µM [activator, single point]
COc1cc([N+](=O)[O-])ccc1NC(=O)Nc1cnccn1 | inconclusive: 2.91 µM [falling, partial curve]
COc1ccc(-c2noc(C3CCCN(S(=O)(=O)c4cccc(Cl)c4C)C3)n2)cc1OC (stereo not given) | inconclusive: 7.31 µM [falling, partial curve]
Cc1ccc2nc3sc(C(=O)N4CCOCC4)c(N)c3cc2c1 | inconclusive: 18.4 µM [activator, single point]
Nc1nc(CCOc2ccc(F)cc2)cs1 | inconclusive: 16.4 µM [activator, partial curve, poor fit]
COc1ccc(C(CNc2ncnc3sccc23)N(C)C)cc1OC (stereo not given) | inactive
COc1ccc2c(Sc3ccc(C)cc3)c(C(=O)NCC(C)c3ccccc3)[nH]c2c1 (stereo not given) | inconclusive: 25.9 µM [falling, partial curve]
Cc1cccc(C=CC(=O)c2ccccc2)c1 | inconclusive: 11.6 µM [activator, partial curve]

A draw from above in order of count of non-hydrogen atoms, smallest number first.
Structure (SMILES) | Potency
N=C(N)c1ccc(O)cc1 | inconclusive: 0.0046 µM [falling, full curve, poor fit]
COc1ccc(C(CNc2ncnc3sccc23)N(C)C)cc1OC (stereo not given) | inactive
Cc1cc(OC(C)C(=O)NNC(=O)Nc2ccc(F)cc2F)cc(C)c1Cl (stereo not given) | inactive
